Two molecules from publication PMC5378391, “Maltose binding protein-fusion enhances the bioactivity of truncated forms of pig myostatin propeptide produced in E. coli” (PLoS ONE, 2017) can be followed below.

No constants are given. Whether binding was seen depends on the method and setting. Some results given as binding are weak or reduced against the parent protein; the word gives no strength. Sequences can lack the tags named with a protein.

Experiment [1] deals with T1, MBP-fused truncated pig MSTNpro containing residues 42-98 (pig) (UniProt O18831).
T1 sequence: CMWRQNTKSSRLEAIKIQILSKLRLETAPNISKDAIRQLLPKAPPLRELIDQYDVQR
The experiment is described as follows: pull-down; MBP-MSTNpro protein (480 nM) plus MSTN (48 nM) mixed with 50 uL amylose resin in 1 mL, 2 hr at room temperature; washed three times with column buffer; eluted in reducing SDS-PAGE loading buffer; Coomassie blue staining; both purified.

The target of experiment [2] is T1, MBP-fused truncated pig MSTNpro containing residues 42-98 (pig). Briefly: pull-down; MSTN (6 nM) with 15, 30, 45 and 60 nM MBP-Pro42-175 or MBP-Pro42-98, or 60 nM MBP, on amylose resin; eluate immuno-blotted with monoclonal anti-MSTN antibody; both purified.
For experiment [3] the target is unchanged. The experiment is described as follows: condition: only at 1 nM MBP-Pro42-98 with 6 nM MSTN; pull-down; as a2, but 1 nM MBP-Pro42-175 or MBP-Pro42-98 with 6 nM MSTN on amylose resin; immuno-blot against MSTN; both purified.
The target is the same in experiment [4]. The experiment is described as follows: SEC; factor Xa digest of MBP-Pro42-98 on Superdex 75 (FPLC); fractions f16 (void volume) and f22 analysed by reducing SDS-PAGE; both purified.

On to “Myostatin (MSTN) (from UniProt O14793 267-375) (ligand)”, for which the binding entry in experiment [1] is given as “binds”; in experiment [2] it was “binds”; in experiment [3] it was “no binding”.

B1: Pro42-98 (MBP removed by factor Xa) (domain or fragment, pig, UniProt O18831 42-98, looked up)
chain: T1 sequence
notes: Pig myostatin propeptide (MSTNpro), residues 42-98; Derived from m4; also called MBP-removed MSTNpro domain containing residues 42-98; source: E. coli K12TB1; MBP-Pro42-98 digested with factor Xa, soluble fraction of the digest / Superdex 75 fraction f16; not shown: MBP, N-terminal, cleaved
On to B1, for which the binding result in experiment [4] was “binds”.
